Source: publication PMC6908726
These are yes or no findings as the source states them, for the method shown. Binding seen in cells or lysates may run through a third protein. Some binding calls cover weakened binding; strength is not graded here. Blank lines part the entries; values can stand above or below the molecule they belong to.

The chains behind the UniProt entries cited, without tags or fusion partners.
UniProt O88597: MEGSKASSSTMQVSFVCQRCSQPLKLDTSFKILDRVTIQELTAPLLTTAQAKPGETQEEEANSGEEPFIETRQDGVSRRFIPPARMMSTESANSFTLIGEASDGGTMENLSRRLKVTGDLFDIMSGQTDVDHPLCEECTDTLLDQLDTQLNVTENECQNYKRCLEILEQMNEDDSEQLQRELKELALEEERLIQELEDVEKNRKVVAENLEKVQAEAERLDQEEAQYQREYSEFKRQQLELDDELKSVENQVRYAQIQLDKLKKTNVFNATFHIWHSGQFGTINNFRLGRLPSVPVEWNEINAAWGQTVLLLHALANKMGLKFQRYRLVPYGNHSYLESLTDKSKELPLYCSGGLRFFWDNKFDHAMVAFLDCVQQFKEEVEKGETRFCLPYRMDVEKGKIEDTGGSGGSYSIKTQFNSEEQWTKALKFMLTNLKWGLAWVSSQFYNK
UniProt Q3UP24: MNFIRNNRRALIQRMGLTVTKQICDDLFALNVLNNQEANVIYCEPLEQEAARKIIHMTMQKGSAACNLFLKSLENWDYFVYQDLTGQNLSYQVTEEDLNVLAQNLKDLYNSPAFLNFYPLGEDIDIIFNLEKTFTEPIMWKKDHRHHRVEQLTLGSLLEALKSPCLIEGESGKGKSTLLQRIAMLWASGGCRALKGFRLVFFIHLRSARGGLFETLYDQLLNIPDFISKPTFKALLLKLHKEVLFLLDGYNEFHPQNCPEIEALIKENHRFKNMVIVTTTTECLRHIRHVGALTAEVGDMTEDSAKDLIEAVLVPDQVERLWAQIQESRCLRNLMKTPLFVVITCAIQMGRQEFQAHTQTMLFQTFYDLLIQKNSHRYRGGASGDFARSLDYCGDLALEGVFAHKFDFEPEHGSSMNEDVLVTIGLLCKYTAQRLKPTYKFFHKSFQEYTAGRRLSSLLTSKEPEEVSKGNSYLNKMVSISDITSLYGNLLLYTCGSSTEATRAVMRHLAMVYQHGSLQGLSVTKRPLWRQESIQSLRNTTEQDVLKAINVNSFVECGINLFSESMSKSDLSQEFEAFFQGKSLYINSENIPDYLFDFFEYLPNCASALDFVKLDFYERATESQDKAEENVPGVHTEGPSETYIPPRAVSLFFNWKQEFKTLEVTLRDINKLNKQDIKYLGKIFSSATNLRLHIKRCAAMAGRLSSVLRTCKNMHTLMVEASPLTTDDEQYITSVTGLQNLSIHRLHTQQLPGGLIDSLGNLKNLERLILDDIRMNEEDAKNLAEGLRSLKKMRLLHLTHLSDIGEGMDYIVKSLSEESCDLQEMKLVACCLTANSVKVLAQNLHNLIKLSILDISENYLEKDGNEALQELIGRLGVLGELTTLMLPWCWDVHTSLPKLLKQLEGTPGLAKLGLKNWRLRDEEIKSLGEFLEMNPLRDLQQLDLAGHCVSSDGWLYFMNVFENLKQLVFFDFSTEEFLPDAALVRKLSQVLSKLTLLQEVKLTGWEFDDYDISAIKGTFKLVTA
UniProt Q8R4B8: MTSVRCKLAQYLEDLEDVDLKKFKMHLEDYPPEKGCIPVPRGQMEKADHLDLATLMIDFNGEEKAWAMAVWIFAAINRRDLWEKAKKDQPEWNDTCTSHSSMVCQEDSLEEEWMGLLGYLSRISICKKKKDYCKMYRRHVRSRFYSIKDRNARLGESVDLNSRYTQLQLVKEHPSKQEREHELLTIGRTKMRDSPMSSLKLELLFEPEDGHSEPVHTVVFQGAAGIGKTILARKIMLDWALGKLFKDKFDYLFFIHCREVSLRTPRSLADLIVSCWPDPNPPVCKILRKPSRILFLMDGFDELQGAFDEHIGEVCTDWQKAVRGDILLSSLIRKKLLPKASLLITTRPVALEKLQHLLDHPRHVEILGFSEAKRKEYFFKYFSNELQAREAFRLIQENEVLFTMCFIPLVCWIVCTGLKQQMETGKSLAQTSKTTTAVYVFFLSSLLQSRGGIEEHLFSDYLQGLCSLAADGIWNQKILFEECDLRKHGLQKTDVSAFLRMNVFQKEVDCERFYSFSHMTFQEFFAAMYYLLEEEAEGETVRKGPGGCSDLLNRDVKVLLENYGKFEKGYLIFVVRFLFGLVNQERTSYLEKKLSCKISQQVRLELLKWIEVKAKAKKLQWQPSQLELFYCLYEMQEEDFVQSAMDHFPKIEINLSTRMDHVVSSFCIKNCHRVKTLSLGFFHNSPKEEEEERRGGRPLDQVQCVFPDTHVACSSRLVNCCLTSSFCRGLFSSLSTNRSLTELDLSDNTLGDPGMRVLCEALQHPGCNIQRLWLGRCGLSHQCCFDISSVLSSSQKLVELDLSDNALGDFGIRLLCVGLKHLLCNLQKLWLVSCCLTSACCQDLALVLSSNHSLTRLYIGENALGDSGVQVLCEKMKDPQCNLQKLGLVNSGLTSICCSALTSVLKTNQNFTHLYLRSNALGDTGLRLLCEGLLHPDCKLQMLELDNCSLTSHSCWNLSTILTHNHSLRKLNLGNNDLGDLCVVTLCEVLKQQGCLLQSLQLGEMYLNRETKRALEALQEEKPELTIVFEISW
UniProt Q6PF93: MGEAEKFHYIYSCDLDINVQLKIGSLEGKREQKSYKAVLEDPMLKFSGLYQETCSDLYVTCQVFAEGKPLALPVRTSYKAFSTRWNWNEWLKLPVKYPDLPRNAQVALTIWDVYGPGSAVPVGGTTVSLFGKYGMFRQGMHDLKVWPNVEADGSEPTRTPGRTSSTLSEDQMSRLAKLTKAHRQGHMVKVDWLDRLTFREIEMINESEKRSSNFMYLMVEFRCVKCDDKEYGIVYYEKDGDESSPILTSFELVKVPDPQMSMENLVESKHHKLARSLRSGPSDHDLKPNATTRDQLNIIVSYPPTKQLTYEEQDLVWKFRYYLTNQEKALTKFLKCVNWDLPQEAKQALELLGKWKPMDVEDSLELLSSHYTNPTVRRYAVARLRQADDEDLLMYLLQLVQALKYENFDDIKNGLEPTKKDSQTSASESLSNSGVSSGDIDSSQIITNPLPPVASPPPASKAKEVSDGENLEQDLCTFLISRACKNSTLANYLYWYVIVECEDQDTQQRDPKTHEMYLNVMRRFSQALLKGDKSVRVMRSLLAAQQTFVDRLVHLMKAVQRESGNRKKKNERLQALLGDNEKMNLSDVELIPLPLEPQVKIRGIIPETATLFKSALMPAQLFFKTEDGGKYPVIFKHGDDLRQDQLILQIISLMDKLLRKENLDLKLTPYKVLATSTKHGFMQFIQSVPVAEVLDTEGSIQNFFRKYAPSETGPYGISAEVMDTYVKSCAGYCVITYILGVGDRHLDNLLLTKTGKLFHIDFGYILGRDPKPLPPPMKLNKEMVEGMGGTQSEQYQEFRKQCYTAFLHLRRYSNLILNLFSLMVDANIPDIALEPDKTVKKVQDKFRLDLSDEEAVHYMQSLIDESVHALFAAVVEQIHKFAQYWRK

How the values were obtained:
[1] = molecular target: T1, UVRAG (wild-type, endogenous mouse) (mouse (endogenous in liver and BMDM)) (UniProt Q8K245); assay: co-IP; liver of 48 h-starved control and Dox-treated/untreated iUVRAG^FS mice; IP with anti-UVRAG (C-term), IgG as negative control; lysis in 25 mM HEPES, 150 mM NaCl, 1 mM EDTA, 1% Triton X-100; western blot
T1 sequence: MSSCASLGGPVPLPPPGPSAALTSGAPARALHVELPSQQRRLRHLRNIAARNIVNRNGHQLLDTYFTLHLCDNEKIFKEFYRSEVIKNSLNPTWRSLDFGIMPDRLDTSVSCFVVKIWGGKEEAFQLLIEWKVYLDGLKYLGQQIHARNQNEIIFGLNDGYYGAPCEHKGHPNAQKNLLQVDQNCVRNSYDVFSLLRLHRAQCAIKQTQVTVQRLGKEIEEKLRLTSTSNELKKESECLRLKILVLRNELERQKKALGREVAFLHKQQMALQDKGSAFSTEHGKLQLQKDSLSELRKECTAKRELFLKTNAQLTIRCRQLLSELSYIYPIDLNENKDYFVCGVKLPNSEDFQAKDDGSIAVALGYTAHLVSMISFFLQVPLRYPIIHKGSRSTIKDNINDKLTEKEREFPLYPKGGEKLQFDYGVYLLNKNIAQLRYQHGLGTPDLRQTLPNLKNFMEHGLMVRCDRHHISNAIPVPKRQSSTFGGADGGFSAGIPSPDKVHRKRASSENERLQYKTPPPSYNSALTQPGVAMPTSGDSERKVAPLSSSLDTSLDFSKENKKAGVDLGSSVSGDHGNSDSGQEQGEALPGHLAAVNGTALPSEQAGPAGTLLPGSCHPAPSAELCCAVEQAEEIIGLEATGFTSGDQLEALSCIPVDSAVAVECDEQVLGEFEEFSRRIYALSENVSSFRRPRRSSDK

[2] = molecular target: T2, pro-caspase-1 (mouse (endogenous in BMDM and colon)) (UniProt P29452); assay: co-IP; colon tissues of control and iUVRAG^FS mice on Dox before/after DSS; inflammasome complex assembly; the precipitating antibody is not named in the text shown
T2 sequence: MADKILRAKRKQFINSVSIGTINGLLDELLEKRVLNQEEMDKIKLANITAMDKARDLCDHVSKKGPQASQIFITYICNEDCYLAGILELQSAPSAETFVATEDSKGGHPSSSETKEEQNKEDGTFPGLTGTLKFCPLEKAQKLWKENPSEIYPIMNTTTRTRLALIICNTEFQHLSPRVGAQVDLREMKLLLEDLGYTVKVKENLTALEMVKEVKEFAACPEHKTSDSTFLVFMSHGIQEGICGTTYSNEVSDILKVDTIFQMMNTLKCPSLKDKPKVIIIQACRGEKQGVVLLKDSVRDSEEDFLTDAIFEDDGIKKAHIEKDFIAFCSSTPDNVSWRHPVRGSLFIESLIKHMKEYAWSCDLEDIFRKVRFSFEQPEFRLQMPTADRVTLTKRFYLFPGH

[3] = molecular target: T2, pro-caspase-1 (mouse (endogenous in BMDM and colon)); assay: co-IP; BMDM from iUVRAG^FS and control mice (also Atg5-deficient BMDM), PBS or LPS (100 ng/ml, 6 h) followed by 1 h of ATP; ASC and NLRP3 co-precipitated with pro-caspase-1; western blot
[4] = molecular target: Beclin1 (mouse (endogenous in liver and BMDM)) (UniProt O88597); assay: co-IP; livers of LPS-treated iUVRAG^FS mice (Supplementary Fig. 2b, not shown); told only as 'similar results'
[5] = molecular target: Beclin1 (mouse (endogenous in liver and BMDM)) (UniProt O88597); assay: co-IP; BMDMs from iUVRAG^FS mice, PBS or LPS (100 ng/ml) for 4 h, with or without Dox; IP with anti-Beclin1; lysis in 20 mM Tris pH 7.5, 150 mM NaCl, 1 mM EDTA, 2% Triton X-100; western blot
[6] = molecular target: T3, β-catenin (mouse, endogenous) (mouse (endogenous in spleen and colon)), Q02248; assay: co-IP; spleens from 18-month-old control and iUVRAG^FS mice on Dox (Fig. 7n; also Supplementary Fig. 7k, not shown); co-IP of β-catenin with LC3 and TCF4; conditions: remark: other sources report otherwise
T3 chain: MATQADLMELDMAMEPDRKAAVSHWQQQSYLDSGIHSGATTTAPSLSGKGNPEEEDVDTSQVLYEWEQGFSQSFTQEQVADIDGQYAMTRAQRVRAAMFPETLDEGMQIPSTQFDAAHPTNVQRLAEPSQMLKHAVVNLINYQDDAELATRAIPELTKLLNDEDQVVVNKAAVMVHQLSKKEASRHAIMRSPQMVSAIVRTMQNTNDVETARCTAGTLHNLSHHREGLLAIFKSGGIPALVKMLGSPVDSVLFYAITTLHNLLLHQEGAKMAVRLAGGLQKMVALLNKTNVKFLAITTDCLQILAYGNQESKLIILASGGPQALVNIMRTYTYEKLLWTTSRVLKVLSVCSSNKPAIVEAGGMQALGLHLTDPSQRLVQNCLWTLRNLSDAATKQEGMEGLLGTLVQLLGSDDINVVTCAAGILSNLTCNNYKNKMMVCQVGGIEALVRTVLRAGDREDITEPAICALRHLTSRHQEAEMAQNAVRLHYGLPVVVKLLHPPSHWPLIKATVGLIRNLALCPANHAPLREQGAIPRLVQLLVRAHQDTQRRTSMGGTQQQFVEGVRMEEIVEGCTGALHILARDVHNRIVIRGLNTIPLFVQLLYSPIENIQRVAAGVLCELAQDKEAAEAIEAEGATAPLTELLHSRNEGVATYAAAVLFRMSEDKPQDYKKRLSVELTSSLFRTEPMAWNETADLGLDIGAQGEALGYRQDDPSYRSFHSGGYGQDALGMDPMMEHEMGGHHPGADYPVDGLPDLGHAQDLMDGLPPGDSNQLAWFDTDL

[7] = molecular target: T4, UVRAG (wild-type, endogenous mouse) (mouse (endogenous in liver and BMDM)), Q8K245; assay: co-IP; liver of 48 h-starved control and Dox-treated/untreated iUVRAG^FS mice; IP with anti-UVRAG (C-term), IgG as negative control; lysis in 25 mM HEPES, 150 mM NaCl, 1 mM EDTA, 1% Triton X-100; western blot; conditions: remark: other sources report otherwise
T4 chain: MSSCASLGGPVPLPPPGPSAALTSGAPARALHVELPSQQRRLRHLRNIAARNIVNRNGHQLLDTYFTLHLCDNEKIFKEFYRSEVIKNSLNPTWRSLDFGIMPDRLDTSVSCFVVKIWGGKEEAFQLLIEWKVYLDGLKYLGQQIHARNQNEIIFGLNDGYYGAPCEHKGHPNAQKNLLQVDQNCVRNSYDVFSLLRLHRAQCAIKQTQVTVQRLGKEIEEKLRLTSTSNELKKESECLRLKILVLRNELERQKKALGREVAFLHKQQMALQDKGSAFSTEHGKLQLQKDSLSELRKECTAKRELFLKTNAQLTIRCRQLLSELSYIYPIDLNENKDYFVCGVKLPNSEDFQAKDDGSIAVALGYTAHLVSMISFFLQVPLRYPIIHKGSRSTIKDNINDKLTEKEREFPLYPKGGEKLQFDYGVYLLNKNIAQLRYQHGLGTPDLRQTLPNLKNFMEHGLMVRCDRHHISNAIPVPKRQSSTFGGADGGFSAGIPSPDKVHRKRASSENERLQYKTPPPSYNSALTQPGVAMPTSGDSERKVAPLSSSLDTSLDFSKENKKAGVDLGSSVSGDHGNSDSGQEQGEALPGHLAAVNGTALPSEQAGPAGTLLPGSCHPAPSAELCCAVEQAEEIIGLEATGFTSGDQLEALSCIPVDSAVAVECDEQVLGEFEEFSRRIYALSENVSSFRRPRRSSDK

binding [1]: binds
Molecule: Beclin1 (from UniProt O88597 1-448)

binding [2]: binds
Molecule: NLRC4 (from UniProt Q3UP24 1-1024)

binding [3]: binds
binding [2]: binds
Molecule: NLRP3 (from UniProt Q8R4B8 1-1033)

binding [4]: binds
binding [5]: binds
binding [1]: binds
Molecule: Vps34 (from UniProt Q6PF93 1-887) (enzyme)

binding [6]: binds
B1: TCF4, Q924A0 1-459 (protein)
chain: MPQLNGGGGDDLGANDELISFKDEGEQEEKNSENSSAERDLADVKSSLVNESETNQDSSSDSEAERRPPPRSESFRDKSRESLEEAAKRQDGGLFKGPPYPGYPFIMIPDLTSPYLPNGSLSPTARTYLQMKWPLLDVQAGSLQSRQTLKDARSPSPAHIVSNKVPVVQHPHHVHPLTPLITYSNEHFTPGNPPPHLPADVDPKTGIPRPPHPPDISPYYPLSPGTVGQIPHPLGWLVPQQGQPVYPITTGGFRHPYPTALTVNASMSRFPPHMVPPHHTLHTTGIPHPAIVTPTVKQESSQSDVGSLHSSKHQDSKKEEEKKKPHIKKPLNAFMLYMKEMRAKVVAECTLKESAAINQILGRRWHALSREEQAKYYELARKERQLHMQLYPGWSARDNYGKKKKRKRDKQPGETNEHSECFLNPCLSLPPITDLSAPKKCRARFGLDQQNNWCGPCSL

binding [2]: binds
B2: NLRP6 (protein, UniProt Q91WS2 1-869)
chain: MDAAGASCSSVDAVARELLMATLEELSQEQLKRFRHKLRDAPLDGRSIPWGRLERSDAVDLVDKLIEFYEPVPAVEMTRQVLKRSDIRDVASRLKQQQLQKLGPTSVLLSVSAFKKKYREHVLRQHAKVKERNARSVKINKRFTKLLIAPGTGAVEDELLGPLGEPEPERARRSDTHTFNRLFRGNDEESSQPLTVVLQGPAGIGKTMAAKKILYDWAAGKLYHSQVDFAFFMPCGELLERPGKRSLADLVLDQCPDRAWPVKRILAQPNRLLFILDGADELPTLPSSEATPCKDPLEATSGLRVLSGLLSQELLPGARLLVTTRHAATGRLQGRLCSPQCAEIRGFSDKDKKKYFFKFFRDERKAERAYRFVKENETLFALCFVPFVCWIVCTVLQQQLELGRDLSRTSKTTTSVYLLFITSMLKSAGTNGPRVQGELRTLCRLAREGILDHHKAQFSEEDLEKLKLRGSQVQTIFLNKKEIPGVLKTEVTYQFIDQSFQEFLAALSYLLEAERTPGTPAGGVQKLLNSDAELRGHLALTTRFLFGLLNTEGLRDIGNHFGCVVPDHVKKDTLRWVQGQSHPKGPPVGAKKTAELEDIEDAEEEEEEEEDLNFGLELLYCLYETQEEDFVRQALSSLPEIVLERVRLTRMDLEVLNYCVQCCPDGQALRLVSCGLVAAKEKKKKKKSLVKRLKGSQSTKKQPPVSLLRPLCETMTTPKCHLSVLILSHCRLPDAVCRDLSEALKVAPALRELGLLQSRLTNTGLRLLCEGLAWPKCQVKTLRMQLPDLQEVINYLVIVLQQSPVLTTLDLSGCQLPGVIVEPLCAALKHPKCSLKTLSLTSVELSENSLRDLQAVKTSKPDLSIIYSK

binding [2]: binds
B3: AIM2 (protein, UniProt Q91VJ1 1-354)
chain: MESEYREMLLLTGLDHITEEELKRFKYFALTEFQIARSTLDVADRTELADHLIQSAGAASAVTKAINIFQKLNYMHIANALEEKKKEAERKLMTNTKKRGTQKVENRSQAENCSAASATRSDNDFKEQAATEVCPQAKPQKKQMVAEQEAIREDLQKDPLVVTVLKAINPFECETQEGRQEIFHATVATETDFFFVKVLNAQFKDKFIPKRTIKISNYLWHSNFMEVTSSSVVVDVESNHEVPNNVVKRARETPRISKLKIQPCGTIVNGLFKVQKITEEKDRVLYGIHDKTGTMEVLVLGNPSKTKCEEGDKIRLTFFEVSKNGVKIQLKSGPCSFFKVIKAAKPKTDMKSVE

binding [7]: binds
B4: Rubicon, Q80U62 1-956 (protein)
chain: MRPEGAGMDLGGGDGERLLEKSRREHWQLLGNLKTTVEGLVSANCPNVWSKYGGLERLCRDMQNILYHGLIHDQVCCRQADYWQFVKDIRWLSPHSALHVEKFISLHESDQSDTDSVSERAVAELWLQHSLQCHCLSAQLRPLLGDRQYIRKFYTETAFLLSDAHVTAMLQCLEAVEQNNPRLLAQIDASMFARKQESPLLVTKSQSLTALPGSTYTPPASYAQHSYFGSSSSLQSMPQSSHSSERRSTSFSLSGPSWQPQEDRECLSPAETQTTPAPLPSDSTLAQDSPLTAQEMSDSTLTSPLEASWVSSQNDSPSDVSEGPEYLAIGNPAPHGRTASCESHSSNGESSSSHLFSSSSSQKLESAASSLGDQEEGRQSQAGSVLRRSSFSEGQTAPVASGTKKSHIRSHSDTNIASRGAAGGPRNITIIVEDPIAEGGQYLCSGEGMFRRPSEGQSLISYLSEQDFGSCADLEKENAHFSISESLIAAIELMKCNMMSQCLEEEEVEEEDSDREIQELKQKIRLRRQQIRTKNLLPAYRETENGSFRVTSSSSQFSSRDSTQLSESGSAEDADDLEIQDADIRRSAVSNGKSSFSQNLSHCFLHSTSAEAVAMGLLKQFEGMQLPAASELEWLVPEHDAPQKLLPIPDSLPISPDDGQHADIYKLRIRVRGNLEWAPPRPQIIFNVHPAPTRKIAVAKQNYRCAGCGIRTDPDYIKRLRYCEYLGKYFCQCCHENAQMVVPSRILRKWDFSKYYVSNFSKDLLLKIWNDPLFNVQDINSALYRKVKLLNQVRLLRVQLYHMKNMFKTCRLAKELLDSFDVVPGHLTEDLHLYSLSDLTATKKGELGPRLAELTRAGAAHVERCMLCQAKGFICEFCQNEEDVIFPFELHKCRTCEECKACYHKTCFKSGRCPRCERLQARRELLAKQSLESYLSDYEEEPTEALALEATVLETT
